Results are given in words; binding and its absence hold for the method and conditions named. Binding seen in cells or lysates may run through a third protein. Some results given as binding are weak or reduced against the parent protein; the word gives no strength. Sequences can lack the tags named with a protein.
Molecular target: T1, extracellularly FLAG-tagged Kir3.1 (UniProt P48549)
T1 sequence: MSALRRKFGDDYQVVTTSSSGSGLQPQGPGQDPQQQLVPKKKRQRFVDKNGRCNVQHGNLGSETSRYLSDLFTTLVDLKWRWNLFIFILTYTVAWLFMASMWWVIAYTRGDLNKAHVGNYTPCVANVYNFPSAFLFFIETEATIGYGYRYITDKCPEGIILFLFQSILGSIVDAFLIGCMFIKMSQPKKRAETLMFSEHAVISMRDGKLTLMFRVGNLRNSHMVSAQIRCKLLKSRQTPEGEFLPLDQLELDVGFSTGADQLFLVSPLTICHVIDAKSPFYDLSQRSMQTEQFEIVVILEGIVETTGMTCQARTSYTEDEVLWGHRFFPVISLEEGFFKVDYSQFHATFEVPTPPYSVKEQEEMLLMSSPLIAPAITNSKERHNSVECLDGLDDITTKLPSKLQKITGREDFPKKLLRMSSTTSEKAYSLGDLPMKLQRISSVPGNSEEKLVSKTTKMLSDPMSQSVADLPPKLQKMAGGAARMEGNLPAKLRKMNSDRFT
Assay: co-IP; FLAG-Kir3.1 precipitated with anti-FLAG M2 agarose from membranes solubilised in 0.5% dodecylmaltoside, overnight at 4°C, washed with 300 mM KCl, eluted with FLAG peptide; blot with anti-myc for Kir3.2; cells with control, Gβ1, Gβ4, Gβ4/Gγ2, Gγ2, Gγ4, Gγ5 or Gγ7 siRNA or overexpressed Gβ1 or HA-Gγ2; chase 0-48 h after a 30 min tetracycline pulse

B1: Kir3.2-MYC (protein, UniProt P48051 1-423)
chain: MAKLTESMTNVLEGDSMDQDVESPVAIHQPKLPKQARDDLPRHISRDRTKRKIQRYVRKDGKCNVHHGNVRETYRYLTDIFTTLVDLKWRFNLLIFVMVYTVTWLFFGMIWWLIAYIRGDMDHIEDPSWTPCVTNLNGFVSAFLFSIETETTIGYGYRVITDKCPEGIILLLIQSVLGSIVNAFMVGCMFVKISQPKKRAETLVFSTHAVISMRDGKLCLMFRVGDLRNSHIVEASIRAKLIKSKQTSEGEFIPLNQTDINVGYYTGDDRLFLVSPLIISHEINQQSPFWEISKAQLPKEELEIVVILEGMVEATGMTCQARSSYITSEILWGYRFTPVLTLEDGFYEVDYNSFHETYETSTPSLSAKELAELASRAELPLSWSVSSKLNQHAELETEEEEKNLEEQTERNGDVANLENESKV
For B1, the binding was “binds”.

— PMC3995069
